Literature values, collected in patent US20160354348A1, “METHODS FOR PROPHYLATIC APPETITE SUPPRESSION” (Orexigen Therapeutics, Inc., priority 2005, published 2016).
The name of at least one read-out is uncertain.

Details: after administration of the immediate-release form

In the case of NS(=O)(=O)Cc1noc2ccccc12 [zonisamide, 1,2-benzisoxazole-3-methanesulfonamide], the “Time to peak plasma concentration (Cmax)” value is given as 2 to 6 h.
